{"sequences": {"note": "Chains of the proteins cited; added tags and fusions are not shown.", "UniProt P16473, whole entry": "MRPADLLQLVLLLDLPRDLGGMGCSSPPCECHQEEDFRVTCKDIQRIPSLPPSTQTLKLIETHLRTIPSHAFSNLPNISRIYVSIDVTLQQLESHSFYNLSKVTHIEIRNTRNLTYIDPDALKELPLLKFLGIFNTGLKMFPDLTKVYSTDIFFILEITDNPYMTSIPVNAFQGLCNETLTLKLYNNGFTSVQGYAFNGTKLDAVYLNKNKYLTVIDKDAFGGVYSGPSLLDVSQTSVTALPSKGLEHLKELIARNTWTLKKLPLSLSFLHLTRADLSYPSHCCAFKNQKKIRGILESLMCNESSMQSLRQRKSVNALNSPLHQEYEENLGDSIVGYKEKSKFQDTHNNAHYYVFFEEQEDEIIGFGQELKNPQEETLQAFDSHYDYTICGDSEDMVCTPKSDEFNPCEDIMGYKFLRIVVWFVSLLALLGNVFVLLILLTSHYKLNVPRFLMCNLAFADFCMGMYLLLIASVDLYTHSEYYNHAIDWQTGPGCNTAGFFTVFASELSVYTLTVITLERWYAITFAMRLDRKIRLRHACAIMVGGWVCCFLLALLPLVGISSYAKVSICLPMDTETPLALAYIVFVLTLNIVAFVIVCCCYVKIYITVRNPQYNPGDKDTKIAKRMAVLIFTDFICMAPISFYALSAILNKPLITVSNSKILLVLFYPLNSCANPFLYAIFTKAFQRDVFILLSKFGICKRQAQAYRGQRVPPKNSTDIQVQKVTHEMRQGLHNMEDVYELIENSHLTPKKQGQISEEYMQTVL", "UniProt P16473, whole entry K218A": "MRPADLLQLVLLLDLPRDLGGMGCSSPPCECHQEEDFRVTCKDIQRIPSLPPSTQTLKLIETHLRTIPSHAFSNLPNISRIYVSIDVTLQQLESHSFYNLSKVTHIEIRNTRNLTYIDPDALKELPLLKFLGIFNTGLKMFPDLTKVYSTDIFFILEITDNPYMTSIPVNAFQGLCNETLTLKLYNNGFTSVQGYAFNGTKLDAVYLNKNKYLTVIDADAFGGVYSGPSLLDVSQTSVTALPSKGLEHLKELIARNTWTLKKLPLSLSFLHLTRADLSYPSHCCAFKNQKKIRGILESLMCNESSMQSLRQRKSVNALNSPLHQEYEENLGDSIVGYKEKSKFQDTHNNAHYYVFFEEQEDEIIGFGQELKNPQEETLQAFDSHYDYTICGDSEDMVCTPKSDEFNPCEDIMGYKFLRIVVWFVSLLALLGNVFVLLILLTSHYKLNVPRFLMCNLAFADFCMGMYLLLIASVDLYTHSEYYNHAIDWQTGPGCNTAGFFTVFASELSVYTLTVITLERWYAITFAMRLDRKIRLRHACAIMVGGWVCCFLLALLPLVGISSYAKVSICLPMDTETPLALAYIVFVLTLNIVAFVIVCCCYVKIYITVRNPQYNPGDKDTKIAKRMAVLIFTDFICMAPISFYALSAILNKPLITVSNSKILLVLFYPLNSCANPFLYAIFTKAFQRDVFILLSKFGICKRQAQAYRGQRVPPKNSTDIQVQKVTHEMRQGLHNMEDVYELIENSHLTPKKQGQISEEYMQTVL", "UniProt P16473, whole entry N170A/K218A/D219A/K244A": "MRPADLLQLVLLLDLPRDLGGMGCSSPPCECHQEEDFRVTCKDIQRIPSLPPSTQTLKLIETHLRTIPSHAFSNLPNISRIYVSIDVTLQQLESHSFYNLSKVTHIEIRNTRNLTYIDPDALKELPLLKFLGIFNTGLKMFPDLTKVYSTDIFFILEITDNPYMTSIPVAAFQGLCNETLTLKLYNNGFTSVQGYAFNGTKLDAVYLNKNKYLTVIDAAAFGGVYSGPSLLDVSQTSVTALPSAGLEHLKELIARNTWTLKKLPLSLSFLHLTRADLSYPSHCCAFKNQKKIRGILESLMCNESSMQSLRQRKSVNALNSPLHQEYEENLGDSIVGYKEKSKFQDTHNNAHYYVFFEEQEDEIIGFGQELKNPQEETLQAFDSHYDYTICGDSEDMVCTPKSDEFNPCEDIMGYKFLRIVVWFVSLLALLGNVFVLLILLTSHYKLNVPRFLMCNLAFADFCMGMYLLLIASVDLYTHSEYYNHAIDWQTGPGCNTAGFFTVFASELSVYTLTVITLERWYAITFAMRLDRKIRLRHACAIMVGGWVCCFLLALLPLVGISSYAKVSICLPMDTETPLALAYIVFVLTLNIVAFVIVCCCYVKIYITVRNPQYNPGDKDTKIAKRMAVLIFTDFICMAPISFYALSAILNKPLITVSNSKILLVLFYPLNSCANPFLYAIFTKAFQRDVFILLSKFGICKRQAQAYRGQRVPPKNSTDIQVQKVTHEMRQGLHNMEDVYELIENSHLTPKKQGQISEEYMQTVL"}, "source": "paper doi:10.1101/2025.03.07.641992", "key": {"[1]": {"biological_target": "TSHR on HEK293T cells (TSHR-293T) (human) (UniProt P16473)", "test": "flow cytometry", "conditions": "protein on the cell surface"}, "[2]": {"biological_target": "TSHR from TSHR-293T membrane protein extract (human) (UniProt P16473)", "test": "pull-down", "conditions": "protein in a lysate after overexpression"}, "[3]": {"biological_target": "TSHR K218A (human) (UniProt P16473)", "test": "flow cytometry", "conditions": "largest decrease of the single mutants; protein on the cell surface"}, "[4]": {"biological_target": "TSHR on Nthy-ori 3-1 cells (UniProt P16473)", "test": "flow cytometry", "conditions": "reduced by TSHR siRNA; protein on the cell surface"}, "[5]": {"biological_target": "TSHR quadruple mutant N170A,K218A,D219A,K244A (human) (UniProt P16473)", "test": "flow cytometry", "conditions": "most reduced of all mutants; protein on the cell surface"}, "[6]": {"biological_target": "TSHR on HEK293T cells (TSHR-293T) (human) (UniProt P16473)", "test": "competition with a labelled probe", "conditions": "excess unlabeled YC3 vs FAM-PS-YC3-PEG; protein on the cell surface"}, "[7]": {"conditions": "250 nM aptamer, less intense signal"}}, "note": "For at least one entry, the source does not settle the construct or the ends of the probe. Results from cells or extracts need not show a direct contact. For some of these results: Weaker means in comparison with the reference protein, sequence or condition of that experiment. For some of these results: At least one verdict was read from the data and is not stated in words by the source.", "data": [{"sequence": "ACCGACCGTGCTGGACTCAGATGAACTGGGTCGCACCGGCCTCTTTCACTATGAGCGAGCCTGGCG [YC3-b]", "values": [{"measurement": "binding result", "setting": "[1]; 500 nM aptamer", "result": "binds more weakly"}]}, {"sequence": "ACCGACCGTGCGATGAACAATCGATGGAAGATTGGGTCGCACCGGCCTCTTTCACTATGAGCGAGCCTGGCG [YC3-a]", "values": [{"measurement": "binding result", "setting": "[1]; 500 nM aptamer", "result": "binds more weakly"}]}, {"sequence": "ACCGACCGTGCTGGACTCAGGGCGCATCTTTGGTAAGCAAAGATGGGTTGCAAGCCTCTCGACTATGAGCGAGCCTGGCG [YC1]", "values": [{"measurement": "binding result", "setting": "[1]; 250 nM aptamer", "result": "binds"}]}, {"sequence": "ACCGACCGTGCTGGACTCAGCCGTGACGTTCTACAGAGAACGGGTGGATCCCGCCTCTTCACTATGAGCGAGCCTGGCG [YC6]", "values": [{"measurement": "binding result", "setting": "[1]; 250 nM aptamer", "result": "binds"}]}, {"sequence": "ACCGACCGTGCTGGACTCAATCCATCGTCGACGAGCATACGAAGGGAGGGTATTGTAAGGGACTATGAGCGAGCCTGGCG [YC2]", "values": [{"measurement": "binding result", "setting": "[1]; 250 nM aptamer", "result": "binds"}]}, {"sequence": "ACCGACCGTGCTGGACTCAGGGTGGGTCGTTTCATAGGAAACGGGTGGAACGCCTCTAGCCACTATGAGCGAGCCTGGCG [YC4]", "values": [{"measurement": "binding result", "setting": "[1]; [7]", "result": "binds"}]}, {"sequence": "ACCGACCGTGCTGGACTCAGCCGTGACGTTCTACAGAGAACGGGTGGACCCGCCTCCTCACTATGAGCGAGCCTGGCG [YC8]", "values": [{"measurement": "binding result", "setting": "[1]; 250 nM aptamer", "result": "binds"}]}, {"sequence": "ACCGACCGTGCTGGACTCAGACGGAATCGTCCTTTGTCTACGTGCGGTCTAGACTGTATAGACTATGAGCGAGCCTGGCG [YC5]", "values": [{"measurement": "binding result", "setting": "[1]; [7]", "result": "binds"}]}, {"sequence": "ACCGACCGTGCTGGACTCAGATGAACAATCGATGGAAGATTGGGTCGCACCGGCCTCTTTCACTATGAGCGAGCCTGGCG [YC3]", "values": [{"measurement": "binding result", "setting": "[2]", "result": "binds"}, {"measurement": "binding result", "setting": "[3]", "result": "binds more weakly"}, {"measurement": "binding result", "setting": "[1]; 37 C, stronger than at 4 C", "result": "binds"}, {"measurement": "binding result", "setting": "[1]; excess M22 antibody does not inhibit", "result": "binds"}, {"measurement": "binding result", "setting": "[4]", "result": "binds"}, {"measurement": "binding result", "setting": "[5]", "result": "binds more weakly"}, {"measurement": "binding result", "setting": "[6]", "result": "binds"}]}, {"sequence": "ACCGACCGTGCTGGACTCATGGTCACATCTATCGTACTAGCATGGGTCAATTGGCCTCTTGACTATGAGCGAGCCTGGCG [YC7]", "values": [{"measurement": "binding result", "setting": "[1]; 250 nM aptamer", "result": "binds"}]}]}
